The values that follow come from US20240225971A1 (Genomatica, Inc., priority 2021, published 2024).

Series [1] is described as follows: Clarity of fragrance ingredient in bioderived 1,3-BG by visual observation.
Series [2] is described as follows: Flash point of fragrance ingredients. It counts as physicochemical. The source says: Also included is the molecular weight of each of the fragrance ingredients. Not determinable (ND).

With `CCCCCCCC1CCC(=O)O1` (stereo not drawn) [Aldehyde C14 (Undecalactone γ), Undecalactone γ], in series [1], the “Clarity 1%” value is “Clear” and the “Clarity 10%” value is listed as “Clear”. In addition, the “Flash Point” value in series [2] was 160 °C.
